Laboratory results taken from PubChem BioAssay AID652054 (National Center for Advancing Translational Sciences (NCATS), 2013).
Among all 360,000 compounds or so, about 9,100 (2.5%) were called active. Inconclusive means that the source gave no clear call. Such entries were picked first, then a sample of the others. No stated cut-off is given here; in the data, active means max response below about -50%; inconclusive means no clear call, values can overlap the other calls; inactive means above that. Square brackets hold non-standard residues; d marks the D form. Peptide text beside a SMILES is read from it. * marks the point of attachment. Hyp = O=C(O)[CH]1C[CH](O)CN1; Cbz = O=C(OCc1ccccc1)*; OBn = c1ccc(CO*)cc1

The chains behind the UniProt entries cited, without tags or fusion partners.
UniProt P35462, whole entry, looked up: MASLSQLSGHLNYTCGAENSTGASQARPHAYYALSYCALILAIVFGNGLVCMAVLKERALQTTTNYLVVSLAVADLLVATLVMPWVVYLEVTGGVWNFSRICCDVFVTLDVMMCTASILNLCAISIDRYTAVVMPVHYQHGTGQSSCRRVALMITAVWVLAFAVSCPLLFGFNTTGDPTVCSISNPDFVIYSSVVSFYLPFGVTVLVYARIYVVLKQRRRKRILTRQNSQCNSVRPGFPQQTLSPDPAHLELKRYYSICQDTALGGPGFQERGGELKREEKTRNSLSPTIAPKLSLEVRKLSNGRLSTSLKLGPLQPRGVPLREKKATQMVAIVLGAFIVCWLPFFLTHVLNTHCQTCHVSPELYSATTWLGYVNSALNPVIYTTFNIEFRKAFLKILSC

Biological target: D(3) dopamine receptor (Homo sapiens) (UniProt P35462)
Assay: qHTS of D3 Dopamine Receptor Antagonist: qHTS
Conditions: D3R cells, DiscoveRx beta-arrestin luminescence, antagonist mode; active compounds read low
Summary of the method: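 Cells plated overnight at 1500 cells/well, then exposed to library compounds with dopamine controls for 90 minutes at 37 degrees C. DiscoveRx reagent added for 30–60 minutes at room temperature; luminescence read, quantitative HTS format.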
On the % scale 0 is the no-effect control and ±100 the full control effect.

Row | Compound | max response, negative = inhibition
1 | O=C(N/N=C/c1ccccn1)c1ccc(Cl)cc1 | inconclusive: -32.3%
2 | C=CCn1c(CNC(=O)c2cccs2)nnc1SCC(=O)Nc1ccc(C(=O)O)cc1 | inconclusive: -34.7%
3 | COc1cccc(NC(=O)C2(C)CCN2C(=O)C2CCCCC2)c1 (configuration not stated) | inactive: 0.296%
4 | CN(C)/C=C/C(=O)c1ccc(Br)s1 | inactive: -23%
5 | O=C1/C(=C/c2ccccn2)COc2ccccc21 | inactive: 9.33%
6 | O=C(NCC(c1ccco1)N1CCCC1)c1ccc(Cl)c(S(=O)(=O)N2CCc3ccccc32)c1 (configuration not stated) | inconclusive: -35.7%
7 | COc1cccc(C(=O)NCCS(=O)(=O)N2CCCC2)c1 | active: -62.6%
8 | COc1ccc(S(=O)(=O)NCCSCc2ccccc2C)cc1Br | inactive: -27.4%
9 | Cc1cc(=O)oc2c(C)c(OC(C)C(=O)NC(Cc3c[nH]c4ccc(O)cc34)C(=O)O)ccc12 (configuration not stated) | inconclusive: -43.4%
10 | COc1ccc(NC(=O)/C=C/C(=O)O)c(OC)c1 | inactive: -20%
11 | COc1cccc(CC2(CO)CCCN(Cc3cnn(-c4ccccc4)c3)C2)c1 (configuration not stated) | inconclusive: -35.9%
12 | O=C(Nc1nc(-c2ccccc2)c(-c2ccccc2)o1)c1ccc(F)cc1 | active: -100%
13 | CC(C)(C)c1ccc(C(=O)c2c[nH]c(C(=O)NCCCn3ccnc3)c2)cc1 | inconclusive: -34.2%
14 | Cn1c(=O)c(=O)n(C)c2cc(S(=O)(=O)NCCN3CCN(c4ccccc4F)CC3)ccc21 | inconclusive: -40.4%
15 | Cc1ccc(N2CC(C(=O)OCC(=O)Nc3c(C)cccc3C)CC2=O)cc1 (configuration not stated) | inactive: 0%
16 | Cc1nc(NC(=O)CN(C)S(=O)(=O)c2ccc(Cl)cc2)sc1C | inconclusive: -33.5%
17 | CC(C)C[C@H]1CNC(=O)C(=O)N1CC1CCN(CCc2ccccc2)CC1 | active: -76.3%
18 | Cc1cc(=O)oc2cc(OCC(O)CN3CCc4ccccc4C3)ccc12 (configuration not stated) | active: -55%
19 | OCCC1CN(Cc2ccc3cc(Cl)ccc3n2)CCN1Cc1ccsc1 (configuration not stated) | inconclusive: -33.2%

Row | Compound | max response, negative = inhibition
20 | CCCOc1ccc(C2C(C(=O)c3ccc(C)o3)=C(O)C(=O)N2CCCn2ccnc2)cc1 (configuration not stated) | active: -63.3%
21 | COc1ccccc1CNC(=O)C1(C)CCN1C(=O)C1(c2ccccc2)CC1 (configuration not stated) | active: -57.6%
22 | COc1cc(/C=C/C(=O)c2ccc(Cl)s2)cc(OC)c1O | inconclusive: -47.7%
23 | O=C(NC(=S)Nc1cc(C(F)(F)F)ccc1Cl)c1ccccc1 | inconclusive: -33.3%
24 | O=S(=O)(c1ccc(Cl)cc1)N1CCN(C2CCN(Cc3ccccc3)CC2)CC1 | active: -62.6%
25 | CC(NC(=O)CNC(=O)OCc1ccccc1)C(=O)N1CC(O)CC1C(=O)OCc1ccccc1 (stereo not drawn) (Cbz-Gly-Ala-[Hyp]-OBn; configuration not given here) | inconclusive: -45.7%
26 | O=C(Nc1nnc(-c2ccco2)o1)C1CCCCC1 | inactive: -3.83%
27 | c1ccc(CSc2nnc(-c3cccs3)o2)cc1 | inconclusive: -33.4%
28 | O=[N+]([O-])c1cnccc1-n1nnc2ccccc21 | inactive: 0%
29 | CN1c2ccc([N+](=O)[O-])cc2N(C)C1(C)c1ccccc1 (configuration not stated) | active: -62.1%
30 | CN(C)c1ccc(C(CNS(=O)(=O)c2ccc(F)cc2)c2c[nH]c3ccccc23)cc1 (configuration not stated) | inactive: 2.42%
31 | Cc1nc2ccc(S(=O)(=O)NCC(=O)NCCN3CCCCC3C)cc2s1 (configuration not stated) | inconclusive: -32.2%
32 | Cc1ccc(S(=O)(=O)c2nnn3c2nc(Nc2cccc(C)c2)c2ccccc23)cc1 | inactive: 8.7%
33 | CC1Cc2ccccc2N1S(=O)(=O)c1cccc(C(=O)c2nccn2C)c1 (configuration not stated) | inactive: -25.3%
34 | COc1cccc(C(C)N(C)Cc2nc(-c3ccoc3)oc2C)c1 (configuration not stated) | inconclusive: -47.5%
35 | COc1cc(C(=O)Oc2ccc3ccc(O)cc3c2)cc(OC)c1OC | inactive: 21.7%
36 | S=C(NCc1ccco1)N1CCN(Cc2ccco2)CC1 | inconclusive: -36.6%
37 | CN1CCN(CC(=O)n2c3c(c4ccccc42)CCCC3)CC1 | inconclusive: -40.6%
38 | O=C1C(=O)N(CCS(=O)(=O)c2ccccc2)c2ccc(F)cc21 | inconclusive: -39.6%

Part of the list above, as a markdown table.

| Row | Compound | max response, negative = inhibition |
| --- | --- | --- |
| 20 | CCCOc1ccc(C2C(C(=O)c3ccc(C)o3)=C(O)C(=O)N2CCCn2ccnc2)cc1 (configuration not stated) | active: -63.3% |
| 24 | O=S(=O)(c1ccc(Cl)cc1)N1CCN(C2CCN(Cc3ccccc3)CC2)CC1 | active: -62.6% |
| 26 | O=C(Nc1nnc(-c2ccco2)o1)C1CCCCC1 | inactive: -3.83% |
| 37 | CN1CCN(CC(=O)n2c3c(c4ccccc42)CCCC3)CC1 | inconclusive: -40.6% |

Additional entries follow.

Row | Compound | max response, negative = inhibition
39 | O=[N+]([O-])c1cccc(Cl)c1NCCNS(=O)(=O)c1ccccc1 | active: -55.7%
40 | COC(=O)C1SCC2C(=O)N(Cc3ccc(F)cc3)CC(=O)N21 (configuration not stated) | inactive: 16.2%
41 | Cn1c(=O)nc2n(Cc3ccccc3)c3cccc(Cl)c3cc-2c1=O | inconclusive: -41.3%
42 | COc1ccc2oc(=O)cc(CN3CCN(Cc4ccccc4)CC3)c2c1 | active: -54%
43 | CN(C)C(=O)/C(=C/c1ccc(-c2cccc([N+](=O)[O-])c2)o1)NC(=O)c1ccccc1 | inactive: 0.599%
44 | C=CCn1c(SCC(=O)N(C)C2CCS(=O)(=O)C2)nnc1-c1ccncc1 (configuration not stated) | active: -54.1%
45 | O=S(=O)(NCCN1CCCC1)c1cccc2cccnc12 | inconclusive: -32.4%
46 | CN(C)CCOC1c2ccccc2CCc2ccc3ccccc3c21 (configuration not stated) | inconclusive: -40.6%
47 | CCCC(c1nnnn1Cc1ccc2c(c1)OCO2)N1CCC(C(N)=O)CC1 (configuration not stated) | inactive: 2.22%
48 | N#C/C(=C\c1ccc(OC(F)F)cc1)C(=O)N1CCCCC1 | inconclusive: -33.8%
49 | CC(=O)c1ccc(NC2CC(O)C(O)CO2)cc1 (configuration not stated) | inactive: -7.32%
50 | CC1CCN(C(=S)c2ccc(-c3ccc(Cl)cc3Cl)o2)CC1 | inconclusive: -33.1%
51 | COc1ccc(-c2ccc(=O)n(CC(=O)Nc3ccc(C(=O)NC4CC4)cc3)n2)cc1OC | inconclusive: -49.9%
52 | CC(=O)c1cc(NC(=O)c2ccc(Cl)cc2)c(=O)oc1/C=C/N(C)C | active: -71.8%
53 | Brc1ccccc1OCCNCc1ccccc1 | active: -71.5%
54 | c1ccc(Oc2cccc(NC3=NCCC3)c2)cc1 | inconclusive: -44.2%
55 | Cc1ccc(N2CC(C(=O)NCCCn3ccnc3)CC2=O)cc1 (configuration not stated) | inconclusive: -31.3%
56 | CC1(c2ccccc2)NC(=O)N(NC(=O)COC(=O)c2cc(Br)ccc2O)C1=O (configuration not stated) | inconclusive: -41.9%
57 | CCN1C(=O)N2C[C@H]3CON(C)[C@H]3C[C@H]2c2ccccc21 | inconclusive: -39.4%
